This assay has as its target T1, recombinant human MCAM/Fc chimera (Sino Biological 10115-H02H) (human) (UniProt P43121).
T1 sequence: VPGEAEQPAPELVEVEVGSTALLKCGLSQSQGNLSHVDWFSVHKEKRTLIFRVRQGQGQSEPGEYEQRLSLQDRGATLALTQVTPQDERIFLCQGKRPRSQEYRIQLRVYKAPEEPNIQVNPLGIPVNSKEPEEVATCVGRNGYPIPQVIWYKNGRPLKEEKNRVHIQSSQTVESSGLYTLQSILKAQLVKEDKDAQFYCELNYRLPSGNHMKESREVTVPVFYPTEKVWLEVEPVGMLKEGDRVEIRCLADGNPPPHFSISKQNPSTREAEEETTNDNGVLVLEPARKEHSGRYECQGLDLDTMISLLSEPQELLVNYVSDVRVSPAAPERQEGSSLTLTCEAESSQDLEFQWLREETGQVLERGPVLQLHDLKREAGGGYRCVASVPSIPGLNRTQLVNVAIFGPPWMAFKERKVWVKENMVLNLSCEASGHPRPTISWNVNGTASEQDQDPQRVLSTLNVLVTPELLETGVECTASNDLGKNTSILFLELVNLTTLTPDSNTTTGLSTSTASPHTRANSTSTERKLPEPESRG
In words: SPR; Biacore T100, CM5 chip, room temperature, 1x PBS with 0.05% Tween 20; MCAM/Fc, FGFR1/Fc, FGFR2/Fc or IgG1 Fc immobilised by amine coupling, soluble FGF2, FGF4 or FGF8 flowed over; 1:1 binding model; both purified. A general note: In SPR one partner is held on a chip, and binding of the other changes the refractive index at the surface.

From PMC5467231 come the findings set out here.

These are yes or no findings as the source states them, for the method shown. Sequences can lack the tags named with a protein.

For the substance “recombinant FGF8a (R&D Systems 4745-F8-050) (ligand)”, the binding result is listed as “no binding”.
